Measurements reported in PubChem BioAssay AID1224826 (NIAID, 2016)
Here is one part, drawn at random, of about 17,000 reagents. Of all reagents, about 1,110 (6.6%) were called active. 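Active means lowered or raised reporter signal; replicate intensities are raw and not normalised per plate.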 Further read-outs or replicates are left out here. Reagent sequences are not shown.

Screen: 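Knock-downs that raise or lower Tnf reporter signal after endotoxin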 (primary screen)
Cells: RAW264.7 G9 macrophages from mouse bearing reporters for p65 (GFP) and the Tnf promoter (mCherry)
Reagents: siRNA pool against mouse genes, 100 nM
Duration: 16 h of LPS stimulation, after 2 days of siRNA transfection
Treatment: bacterial lipopolysaccharide (Salmonella minnesota R595), 10 ng/ml
Read-out: 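Nuclear mCherry signal of the Tnf promoter reporter measured by imaging after background removal, scaled to each plate median and turned into robust z-scores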
Direction: Tnf reporter robust z-score: higher = stronger Tnf promoter reporter signal after LPS
Hit rule: 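a well counts as active at a score of -1.3 or below (Tlr4 knock-down control median) or above 3 (raised signal); controls and wells holding fewer than 50 cells are excluded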
Meaning of the calls: active = Tnf reporter clearly lowered or raised; inactive = no clear change in Tnf reporter

no.	gene knocked down	Tnf reporter robust z-score	fewer than 50 cells in well	activity call
1	Lzic	1.75	enough cells in well	inactive
2	Csgalnact2	2.67	enough cells in well	inactive
3	Mtrfr	-0.46	enough cells in well	inactive
4	Or5g29	0.66	enough cells in well	inactive
5	Mmp23	0.51	enough cells in well	inactive
6	Hyou1	0.13	enough cells in well	inactive
7	Usp17lb	2.37	enough cells in well	inactive
8	Gm9734	-0.03	enough cells in well	inactive
9	Fzd4	0.15	enough cells in well	inactive

No new results follow: 2 of the entries above.
no.	gene knocked down	Tnf reporter robust z-score	fewer than 50 cells in well	activity call
7	Usp17lb	2.37	enough cells in well	inactive
8	Gm9734	-0.03	enough cells in well	inactive

The list goes on:
no.	gene knocked down	Tnf reporter robust z-score	fewer than 50 cells in well	activity call
10	Eif6	6.33	enough cells in well	active
11	Mybph	-0.83	enough cells in well	inactive
12	Vmn1r179	0.83	enough cells in well	inactive
13	Dffa	3	enough cells in well	inactive
14	Pepf	-0.67	enough cells in well	inactive
15	Cldn6	-0.73	enough cells in well	inactive
16	Tnr	-0.97	enough cells in well	inactive
17	Abraxas2	1.33	enough cells in well	inactive
18	Snta1	-1	enough cells in well	inactive
19	Mtf1	1.4	enough cells in well	inactive
20	Zbtb32	-0.04	enough cells in well	inactive
21	Sulf1	0.08	enough cells in well	inactive
22	Tulp1	0.19	enough cells in well	inactive
23	Usp22	-0.52	enough cells in well	inactive
24	Mast2	0.35	enough cells in well	inactive
